Test results published in paper PMC11206880, “The RNA Helicase Ded1 from Yeast Is Associated with the Signal Recognition Particle and Is Regulated by SRP21” (Molecules, 2024).
These are yes or no findings as the source states them, for the method shown. For some assays here: In cells and extracts the contact can be indirect. Some binding calls cover weakened binding; strength is not graded here. Where a sequence is shown, tags or fusion partners need not be part of it.

Sequences of proteins named here, by UniProt entry; tags and fusion partners are left off.
UniProt P06634: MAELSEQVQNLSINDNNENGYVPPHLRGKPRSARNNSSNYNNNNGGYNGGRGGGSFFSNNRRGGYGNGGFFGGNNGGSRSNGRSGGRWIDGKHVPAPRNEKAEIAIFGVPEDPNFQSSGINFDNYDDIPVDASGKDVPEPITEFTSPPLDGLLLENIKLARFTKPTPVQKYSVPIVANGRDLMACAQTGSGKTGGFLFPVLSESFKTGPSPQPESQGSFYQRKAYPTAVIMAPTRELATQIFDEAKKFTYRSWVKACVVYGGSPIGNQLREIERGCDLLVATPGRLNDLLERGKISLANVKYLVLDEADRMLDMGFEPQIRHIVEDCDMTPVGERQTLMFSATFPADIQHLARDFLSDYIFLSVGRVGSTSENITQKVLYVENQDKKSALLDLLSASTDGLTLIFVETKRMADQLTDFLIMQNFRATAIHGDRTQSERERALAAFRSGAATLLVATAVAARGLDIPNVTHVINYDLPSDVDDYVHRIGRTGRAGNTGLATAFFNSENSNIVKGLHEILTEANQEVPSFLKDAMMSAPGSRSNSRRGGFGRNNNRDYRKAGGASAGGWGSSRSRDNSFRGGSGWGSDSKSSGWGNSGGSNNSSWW

Columns and labels:
Recombinant Ded1-His = target: T1, Recombinant Ded1-His (Saccharomyces cerevisiae, UniProt P06634 1-604); test: co-IP; purified Ded1 (4 µg) incubated with one purified SRP protein (4-6 µg), no RNA, 1x PBS with 2 mM MgCl2, 45 min, 30 °C; recovered with Ded1-specific IgG cross-linked to protein A-Sepharose beads; SDS-PAGE, Coomassie blue; both purified
T1 construct: Ded1, DEAD-box RNA helicase of budding yeast, expressed from the pET22b plasmid; also called purified Ded1

[1] = target: Ded1 (Saccharomyces cerevisiae (endogenous in yeast extract)) (UniProt P06634); test: co-IP; Ded1-specific IgG on protein A-Sepharose beads with extracts (300 µg protein) of yeast G50 strains each expressing one 2HA-tagged SRP protein; 1x PBS with BSA and heparin, 2 h, 4 °C; anti-HA Western blot; pre-immune IgG as control; also with RNase A (1 mg/mL) digestion of the bound complexes before washing (signals reduced but still more than the control)

Row | Binder | binding (Recombinant Ded1-His) | binding [1]
1 | His-tagged SRP21 (protein, UniProt P32342 1-167) MSVKPIDNYITNSVRLFEVNPSQTLFSISYKPPTQKTDTKVSFRTHNSHLSLNYKFTTNKSKDVSRLLSALGPRGVSITPGKIEKIAQSKKKNNKIKESSKKIKGKSIQDIVGLATLIVNTDVEKSDPAAKKTATEPKQKANAVQNNNGNSAASKKKKNKNKGKKKR | binds weakly | 
2 | HA-tagged SRP101 (protein, UniProt P32916 1-621) MFDQLAVFTPQGQVLYQYNCLGKKFSEIQINSFISQLITSPVTRKESVANANTDGFDFNLLTINSEHKNSPSFNALFYLNKQPELYFVVTFAEQTLELNQETQQTLALVLKLWNSLHLSESILKNRQGQNEKNKHNYVDILQGIEDDLKKFEQYFRIKYEESIKQDHINPDNFTKNGSVPQSHNKNTKKKLRDTKGKKQSTGNVGSGRKWGRDGGMLDEMNHEDAAKLDFSSSNSHNSSQVALDSTINKDSFGDRTEGGDFLIKEIDDLLSSHKDEITSGNEAKNSGYVSTAFGFLQKHVLGNKTINESDLKSVLEKLTQQLITKNVAPEAADYLTQQVSHDLVGSKTANWTSVENTARESLTKALTQILTPGVSVDLLREIQSKRSKKDEEGKCDPYVFSIVGVNGVGKSTNLSKLAFWLLQNNFKVLIVACDTFRSGAVEQLRVHVENLAQLMDDSHVRGSKNKRGKTGNDYVELFEAGYGGSDLVTKIAKQAIKYSRDQNFDIVLMDTAGRRHNDPTLMSPLKSFADQAKPDKIIMVGEALVGTDSVQQAKNFNDAFGKGRNLDFFIISKCDTVGEMLGTMVNMVYATGIPILFVGVGQTYTDLRTLSVKWAVNTLMS |  | binds
3 | SRP21∆73 (domain or fragment, UniProt P32342 1-94) MSVKPIDNYITNSVRLFEVNPSQTLFSISYKPPTQKTDTKVSFRTHNSHLSLNYKFTTNKSKDVSRLLSALGPRGVSITPGKIEKIAQSKKKNN | binds weakly | 

Continued, values first:

Row | binding (Recombinant Ded1-His) | binding [1] | Binder
4 |  | binds | His-tagged Sec65 (natural protein, yeast (S. cerevisiae), UniProt P29478 1-273, looked up, Sec65 of yeast, cloned into the XhoI and BamHI sites of pET19b; source: E. coli Rosetta (DE3), purified (Ni-NTA)) MPRLEEIDDFNDIDDLDMELAELDPSLRTPIAPKITPKVVRSQDQENPAFLPGTNNNSNSNNNSSNEKEQLSFINPKTGKVERSEAISKKDLEEVKRFQVLYPCYFDINRSHKEGRRVPKELAVENPLAKTMADAVRELGILCIFEGEKCHPQDFGNPGRIRVLFKENGQLIGAATKFKGGKRQLMKAVGEYMKRHPTTIESLREIPYGPDFDNIEFKKIPRVKGFKMNEIVPLHSPFLMGHPMTKSVYETPKITAAEKSFKPPKNKYKVVRR
5 |  | binds | His-tagged SRP14 (natural protein, yeast (S. cerevisiae), UniProt P38985 1-146, looked up, SRP14 of yeast, subcloned into the NdeI and XhoI sites of pET22b; source: E. coli Rosetta (DE3), purified (Ni-NTA)) MANTGCLSPGAFLSKVPEFFQTANEKHITVRLTAKRLIEHDPVEGNLEFDSTNHPDYDVSKKASEISVSSRSDREYPLLIRMSYGSHDKKTKCSTVVKASELDQFWQEYSSVFKGGMQNLIKKKKKKSKNGTISKTGKKNKVAKKN
